Experimental data published in paper PMC12961538.
No constants are given. Whether binding was seen depends on the method and setting. Binding seen in cells or lysates may run through a third protein. Some entries that bind do so weakly or less than the wild type.

Sequences of proteins named here, by UniProt entry; tags and fusion partners are left off. Residues count along the entry.
UniProt Q62469, residues 27-1178: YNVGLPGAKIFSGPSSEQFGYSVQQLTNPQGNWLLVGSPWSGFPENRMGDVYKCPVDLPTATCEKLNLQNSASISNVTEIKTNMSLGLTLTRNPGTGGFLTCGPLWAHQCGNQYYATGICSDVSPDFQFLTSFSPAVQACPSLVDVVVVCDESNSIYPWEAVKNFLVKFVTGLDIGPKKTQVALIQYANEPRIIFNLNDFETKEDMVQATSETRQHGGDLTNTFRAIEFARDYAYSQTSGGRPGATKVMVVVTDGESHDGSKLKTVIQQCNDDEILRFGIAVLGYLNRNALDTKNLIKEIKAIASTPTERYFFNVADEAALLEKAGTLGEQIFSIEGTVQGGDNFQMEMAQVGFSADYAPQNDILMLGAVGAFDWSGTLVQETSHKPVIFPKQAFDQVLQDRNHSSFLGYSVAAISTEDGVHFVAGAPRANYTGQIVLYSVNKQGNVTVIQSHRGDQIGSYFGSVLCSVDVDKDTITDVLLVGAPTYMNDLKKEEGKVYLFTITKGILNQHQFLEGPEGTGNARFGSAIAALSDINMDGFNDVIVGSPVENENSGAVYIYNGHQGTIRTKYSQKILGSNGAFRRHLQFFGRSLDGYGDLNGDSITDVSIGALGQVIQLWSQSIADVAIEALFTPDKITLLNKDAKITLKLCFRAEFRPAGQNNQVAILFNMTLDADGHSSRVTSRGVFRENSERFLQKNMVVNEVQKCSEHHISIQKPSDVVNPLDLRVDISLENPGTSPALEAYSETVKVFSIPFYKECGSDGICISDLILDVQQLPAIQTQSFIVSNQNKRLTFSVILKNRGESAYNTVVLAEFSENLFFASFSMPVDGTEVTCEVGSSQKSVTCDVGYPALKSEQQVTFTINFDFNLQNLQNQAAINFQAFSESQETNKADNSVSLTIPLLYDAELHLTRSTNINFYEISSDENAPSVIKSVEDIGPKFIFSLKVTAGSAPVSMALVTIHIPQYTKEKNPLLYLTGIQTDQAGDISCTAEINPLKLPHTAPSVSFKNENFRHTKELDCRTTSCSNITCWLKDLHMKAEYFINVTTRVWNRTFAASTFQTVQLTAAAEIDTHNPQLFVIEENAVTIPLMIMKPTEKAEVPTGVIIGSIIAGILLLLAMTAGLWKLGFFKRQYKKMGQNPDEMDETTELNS
UniProt P09055, residues 21-798: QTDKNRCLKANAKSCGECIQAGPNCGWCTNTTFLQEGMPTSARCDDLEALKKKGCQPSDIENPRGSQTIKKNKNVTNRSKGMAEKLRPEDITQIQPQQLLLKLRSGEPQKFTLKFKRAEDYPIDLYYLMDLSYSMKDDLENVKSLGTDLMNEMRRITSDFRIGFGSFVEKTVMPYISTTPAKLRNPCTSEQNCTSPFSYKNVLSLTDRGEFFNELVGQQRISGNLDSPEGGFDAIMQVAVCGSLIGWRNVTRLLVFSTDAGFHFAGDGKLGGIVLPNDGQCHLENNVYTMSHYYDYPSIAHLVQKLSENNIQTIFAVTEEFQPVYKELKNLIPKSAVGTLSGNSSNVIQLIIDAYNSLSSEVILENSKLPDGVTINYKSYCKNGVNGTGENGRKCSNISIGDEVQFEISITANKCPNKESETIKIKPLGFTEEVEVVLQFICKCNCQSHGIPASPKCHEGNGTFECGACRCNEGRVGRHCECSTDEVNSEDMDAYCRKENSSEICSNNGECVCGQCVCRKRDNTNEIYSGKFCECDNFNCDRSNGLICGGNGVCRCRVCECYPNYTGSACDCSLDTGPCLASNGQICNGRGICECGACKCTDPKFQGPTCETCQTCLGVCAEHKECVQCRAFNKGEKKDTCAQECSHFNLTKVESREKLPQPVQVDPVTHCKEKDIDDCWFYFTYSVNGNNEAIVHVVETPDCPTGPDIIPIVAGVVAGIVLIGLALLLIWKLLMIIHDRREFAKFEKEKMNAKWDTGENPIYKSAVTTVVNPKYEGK
UniProt P11835, residues 24-771: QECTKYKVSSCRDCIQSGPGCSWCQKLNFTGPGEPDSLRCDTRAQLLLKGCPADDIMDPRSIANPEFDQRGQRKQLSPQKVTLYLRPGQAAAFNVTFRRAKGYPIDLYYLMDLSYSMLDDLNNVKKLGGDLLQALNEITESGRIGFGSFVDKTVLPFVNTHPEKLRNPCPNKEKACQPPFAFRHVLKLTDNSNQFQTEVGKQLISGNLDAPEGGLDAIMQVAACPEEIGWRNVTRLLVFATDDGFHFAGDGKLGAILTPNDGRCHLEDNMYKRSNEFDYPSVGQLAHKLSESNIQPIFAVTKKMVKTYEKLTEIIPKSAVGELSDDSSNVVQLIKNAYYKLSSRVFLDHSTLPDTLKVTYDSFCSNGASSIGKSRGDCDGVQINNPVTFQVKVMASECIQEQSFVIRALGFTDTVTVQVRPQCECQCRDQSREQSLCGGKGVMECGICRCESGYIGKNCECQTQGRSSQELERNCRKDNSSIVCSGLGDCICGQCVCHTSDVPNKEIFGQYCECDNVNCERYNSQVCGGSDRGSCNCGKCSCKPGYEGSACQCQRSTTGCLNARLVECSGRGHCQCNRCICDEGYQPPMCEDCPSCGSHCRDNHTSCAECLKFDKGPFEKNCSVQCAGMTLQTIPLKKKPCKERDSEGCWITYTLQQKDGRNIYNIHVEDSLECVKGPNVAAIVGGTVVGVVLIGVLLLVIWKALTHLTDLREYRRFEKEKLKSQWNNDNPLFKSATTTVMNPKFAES

Molecular target: ITGA2 (mouse (endogenous in BMMs)) (UniProt Q62469)
Assay: co-IP; total protein extracts of BMMs; Protein A/G agarose beads with ITGA2 antibody (or IgG), reverse IP with ITGB1 or ITGB2 antibody; Western blot

binding	Substance
binds	ITGB1 (from UniProt P09055 21-798) (receptor)
binds	integrin receptor β2 subunit (ITGB2) (from UniProt P11835 24-771)
